Reference: paper doi:10.1101/2022.05.06.490478 (bioRxiv, 2022)
These are yes or no findings as the source states them, for the method shown. In cells and extracts the contact can be indirect. Here binding means that the protein was enriched with, or labelled near, the bait; the list need not be complete. Tags and fused reporters may be left off the sequences shown.

Biological target: T1, C. elegans TMC-1 with C-terminal 3C site-mVenus-3xFLAG (tmc-1::mVenus knock-in) (C. elegans) (UniProt D3KZG3)
T1 sequence: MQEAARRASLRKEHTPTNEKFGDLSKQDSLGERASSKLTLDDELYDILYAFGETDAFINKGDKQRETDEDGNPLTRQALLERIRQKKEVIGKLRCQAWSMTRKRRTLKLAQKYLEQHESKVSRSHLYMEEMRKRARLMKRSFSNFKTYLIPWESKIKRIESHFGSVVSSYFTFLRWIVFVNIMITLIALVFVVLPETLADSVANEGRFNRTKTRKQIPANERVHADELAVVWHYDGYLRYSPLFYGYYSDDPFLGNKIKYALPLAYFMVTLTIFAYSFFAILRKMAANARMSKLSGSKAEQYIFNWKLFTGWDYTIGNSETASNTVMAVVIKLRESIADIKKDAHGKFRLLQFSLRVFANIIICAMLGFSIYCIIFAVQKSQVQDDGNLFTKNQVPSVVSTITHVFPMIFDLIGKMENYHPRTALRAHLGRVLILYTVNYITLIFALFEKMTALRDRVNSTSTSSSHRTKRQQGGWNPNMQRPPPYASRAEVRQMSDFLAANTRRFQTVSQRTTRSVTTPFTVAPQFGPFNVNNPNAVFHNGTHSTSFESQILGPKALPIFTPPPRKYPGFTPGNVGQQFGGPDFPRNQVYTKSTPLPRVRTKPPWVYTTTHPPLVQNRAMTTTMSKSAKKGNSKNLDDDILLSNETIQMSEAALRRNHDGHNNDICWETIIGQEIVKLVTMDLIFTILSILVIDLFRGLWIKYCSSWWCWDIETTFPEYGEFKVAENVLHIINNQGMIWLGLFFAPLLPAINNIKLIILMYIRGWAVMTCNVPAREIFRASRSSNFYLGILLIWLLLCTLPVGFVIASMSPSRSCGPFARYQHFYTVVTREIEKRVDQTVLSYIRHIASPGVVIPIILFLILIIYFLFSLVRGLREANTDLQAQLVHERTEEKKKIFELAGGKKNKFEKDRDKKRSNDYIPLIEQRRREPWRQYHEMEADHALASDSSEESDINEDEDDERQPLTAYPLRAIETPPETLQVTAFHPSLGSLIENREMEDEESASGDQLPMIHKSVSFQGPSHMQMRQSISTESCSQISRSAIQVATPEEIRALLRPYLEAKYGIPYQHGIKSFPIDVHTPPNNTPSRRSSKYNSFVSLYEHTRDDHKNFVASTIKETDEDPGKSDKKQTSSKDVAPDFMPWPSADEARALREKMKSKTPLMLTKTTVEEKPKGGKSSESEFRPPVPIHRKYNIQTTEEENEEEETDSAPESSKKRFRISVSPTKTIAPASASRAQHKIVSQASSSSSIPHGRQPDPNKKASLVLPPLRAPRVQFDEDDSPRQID
Assay: affinity purification with mass spectrometry

- binding: binds
Substance: ARRestin domain protein ARRD-6 of C. elegans
